From publication PMC9588786
No constants are given. Whether binding was seen depends on the method and setting. Binding seen in cells or lysates may run through a third protein.

Chains of the proteins cited; added tags and fusions are not shown.
UniProt P06730: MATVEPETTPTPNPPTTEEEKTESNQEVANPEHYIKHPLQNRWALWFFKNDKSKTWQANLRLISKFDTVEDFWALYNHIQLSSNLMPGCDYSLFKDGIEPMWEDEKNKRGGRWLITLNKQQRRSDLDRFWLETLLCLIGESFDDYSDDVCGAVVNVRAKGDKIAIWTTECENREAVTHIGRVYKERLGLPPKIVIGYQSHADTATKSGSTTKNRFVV
UniProt P51648: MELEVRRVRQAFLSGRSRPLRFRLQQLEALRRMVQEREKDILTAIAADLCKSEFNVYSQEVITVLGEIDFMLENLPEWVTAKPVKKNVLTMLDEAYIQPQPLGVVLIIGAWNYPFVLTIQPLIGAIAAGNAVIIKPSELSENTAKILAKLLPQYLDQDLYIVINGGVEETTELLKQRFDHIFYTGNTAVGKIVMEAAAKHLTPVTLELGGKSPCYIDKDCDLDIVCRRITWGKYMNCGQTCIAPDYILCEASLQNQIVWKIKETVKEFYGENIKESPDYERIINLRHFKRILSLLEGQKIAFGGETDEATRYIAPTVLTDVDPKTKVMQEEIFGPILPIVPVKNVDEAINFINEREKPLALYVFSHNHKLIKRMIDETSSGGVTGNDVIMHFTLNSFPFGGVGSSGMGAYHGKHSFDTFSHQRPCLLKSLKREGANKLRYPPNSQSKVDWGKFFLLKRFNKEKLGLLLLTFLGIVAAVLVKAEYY

Target: eukaryotic initiation factor 4E (EIF4E) (human (endogenous in HT-1080 and Calu-1)) (UniProt P06730)
Assay: co-IP; anti-EIF4E antibody (clone 5D11) with protein A agarose beads on cleared RIPA lysates of HT-1080 or Calu-1 cells, 4 °C, immunoblot of partners; cells untreated or treated with RSL3, 4EGI-1, 4E1RCat, deferoxamine, 20% FBS, staurosporine, or with EIF4G1 knock-down

binding: no binding
Substance: aldehyde dehydrogenase 3 family member A2 (ALDH3A2) (from UniProt P51648 1-485) (enzyme)
